This is one part of the list.

Amino acid sequences for entries named in this document (tags omitted). A change or cut given only in a name is not applied to a line headed by its entry.
UniProt Q9HCY8: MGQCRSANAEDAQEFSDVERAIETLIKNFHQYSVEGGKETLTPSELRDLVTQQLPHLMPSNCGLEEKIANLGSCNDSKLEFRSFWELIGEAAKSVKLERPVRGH
UniProt Q15404: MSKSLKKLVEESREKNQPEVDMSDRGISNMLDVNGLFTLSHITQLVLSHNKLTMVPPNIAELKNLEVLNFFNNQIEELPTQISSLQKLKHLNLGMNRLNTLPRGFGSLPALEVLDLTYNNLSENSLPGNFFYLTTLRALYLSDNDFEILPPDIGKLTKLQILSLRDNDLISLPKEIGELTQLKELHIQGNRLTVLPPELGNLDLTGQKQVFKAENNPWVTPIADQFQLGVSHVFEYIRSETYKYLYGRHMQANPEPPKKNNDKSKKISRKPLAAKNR
UniProt P19793: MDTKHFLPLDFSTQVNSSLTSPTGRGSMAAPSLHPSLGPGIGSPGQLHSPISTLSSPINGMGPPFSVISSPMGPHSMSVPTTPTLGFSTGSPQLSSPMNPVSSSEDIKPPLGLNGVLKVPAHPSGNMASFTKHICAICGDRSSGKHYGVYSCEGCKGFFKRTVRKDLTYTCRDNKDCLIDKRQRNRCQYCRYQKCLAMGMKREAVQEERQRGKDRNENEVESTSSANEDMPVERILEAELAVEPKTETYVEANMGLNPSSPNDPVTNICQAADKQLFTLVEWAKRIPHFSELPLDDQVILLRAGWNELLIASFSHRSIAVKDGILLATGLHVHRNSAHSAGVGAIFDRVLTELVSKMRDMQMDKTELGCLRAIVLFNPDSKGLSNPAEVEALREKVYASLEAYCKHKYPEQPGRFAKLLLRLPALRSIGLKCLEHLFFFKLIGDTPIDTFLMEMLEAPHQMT
UniProt P60903, whole entry, looked up: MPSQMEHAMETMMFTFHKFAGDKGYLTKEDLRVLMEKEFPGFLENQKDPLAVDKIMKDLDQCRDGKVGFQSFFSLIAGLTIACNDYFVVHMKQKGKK
UniProt Q8WXA3: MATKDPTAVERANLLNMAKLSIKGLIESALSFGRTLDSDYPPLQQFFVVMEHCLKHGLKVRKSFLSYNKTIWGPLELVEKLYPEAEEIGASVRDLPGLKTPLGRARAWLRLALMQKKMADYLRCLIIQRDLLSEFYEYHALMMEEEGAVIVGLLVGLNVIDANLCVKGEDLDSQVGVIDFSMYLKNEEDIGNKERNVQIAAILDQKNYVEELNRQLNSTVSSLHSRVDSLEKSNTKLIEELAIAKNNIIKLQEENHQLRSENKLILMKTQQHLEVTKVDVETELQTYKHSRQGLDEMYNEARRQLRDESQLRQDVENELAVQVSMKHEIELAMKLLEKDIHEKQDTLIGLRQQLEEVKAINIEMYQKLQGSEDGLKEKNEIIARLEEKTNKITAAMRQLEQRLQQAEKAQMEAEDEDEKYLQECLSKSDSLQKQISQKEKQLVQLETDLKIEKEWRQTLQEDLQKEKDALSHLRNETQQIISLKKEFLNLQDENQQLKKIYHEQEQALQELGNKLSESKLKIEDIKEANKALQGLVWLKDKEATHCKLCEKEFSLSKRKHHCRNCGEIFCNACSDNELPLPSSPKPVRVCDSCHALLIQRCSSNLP
UniProt O95059: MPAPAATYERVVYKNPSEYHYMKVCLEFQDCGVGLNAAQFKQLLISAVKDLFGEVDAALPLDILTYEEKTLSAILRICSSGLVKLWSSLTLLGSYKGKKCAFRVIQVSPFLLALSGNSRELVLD
UniProt Q96FQ6: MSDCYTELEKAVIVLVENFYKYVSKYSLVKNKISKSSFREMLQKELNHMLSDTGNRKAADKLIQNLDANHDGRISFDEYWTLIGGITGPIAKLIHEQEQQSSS
UniProt Q9BUV0: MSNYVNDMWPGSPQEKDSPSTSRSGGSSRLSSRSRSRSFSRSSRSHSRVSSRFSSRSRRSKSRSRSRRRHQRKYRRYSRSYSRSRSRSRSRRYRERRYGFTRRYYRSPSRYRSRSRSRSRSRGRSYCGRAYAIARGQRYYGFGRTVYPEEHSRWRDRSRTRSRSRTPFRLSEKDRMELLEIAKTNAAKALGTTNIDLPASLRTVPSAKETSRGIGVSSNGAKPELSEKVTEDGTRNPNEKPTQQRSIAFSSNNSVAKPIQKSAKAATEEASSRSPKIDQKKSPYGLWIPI
UniProt P62070: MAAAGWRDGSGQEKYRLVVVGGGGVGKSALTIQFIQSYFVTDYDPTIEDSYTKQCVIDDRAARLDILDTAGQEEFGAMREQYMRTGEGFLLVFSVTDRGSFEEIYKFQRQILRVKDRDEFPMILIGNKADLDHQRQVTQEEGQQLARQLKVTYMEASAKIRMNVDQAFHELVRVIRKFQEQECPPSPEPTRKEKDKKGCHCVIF
UniProt P80511: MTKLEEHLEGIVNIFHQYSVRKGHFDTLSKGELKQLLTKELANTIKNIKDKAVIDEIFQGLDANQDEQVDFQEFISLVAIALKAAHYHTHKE
UniProt P23297: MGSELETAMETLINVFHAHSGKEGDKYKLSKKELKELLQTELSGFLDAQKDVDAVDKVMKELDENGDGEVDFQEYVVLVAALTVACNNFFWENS
UniProt Q7L099: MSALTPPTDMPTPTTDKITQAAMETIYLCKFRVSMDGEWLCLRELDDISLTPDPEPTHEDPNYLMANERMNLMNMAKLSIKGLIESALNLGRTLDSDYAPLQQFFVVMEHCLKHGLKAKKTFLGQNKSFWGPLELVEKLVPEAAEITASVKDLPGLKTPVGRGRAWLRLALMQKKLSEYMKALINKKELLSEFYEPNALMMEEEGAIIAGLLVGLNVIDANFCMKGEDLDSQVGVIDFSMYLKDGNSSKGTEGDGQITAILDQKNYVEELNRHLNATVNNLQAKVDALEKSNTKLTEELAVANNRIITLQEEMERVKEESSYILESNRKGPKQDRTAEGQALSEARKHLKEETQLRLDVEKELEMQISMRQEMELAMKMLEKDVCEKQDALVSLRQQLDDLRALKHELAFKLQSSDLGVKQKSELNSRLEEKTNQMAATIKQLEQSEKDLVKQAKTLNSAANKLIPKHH
UniProt Q9Y2B1: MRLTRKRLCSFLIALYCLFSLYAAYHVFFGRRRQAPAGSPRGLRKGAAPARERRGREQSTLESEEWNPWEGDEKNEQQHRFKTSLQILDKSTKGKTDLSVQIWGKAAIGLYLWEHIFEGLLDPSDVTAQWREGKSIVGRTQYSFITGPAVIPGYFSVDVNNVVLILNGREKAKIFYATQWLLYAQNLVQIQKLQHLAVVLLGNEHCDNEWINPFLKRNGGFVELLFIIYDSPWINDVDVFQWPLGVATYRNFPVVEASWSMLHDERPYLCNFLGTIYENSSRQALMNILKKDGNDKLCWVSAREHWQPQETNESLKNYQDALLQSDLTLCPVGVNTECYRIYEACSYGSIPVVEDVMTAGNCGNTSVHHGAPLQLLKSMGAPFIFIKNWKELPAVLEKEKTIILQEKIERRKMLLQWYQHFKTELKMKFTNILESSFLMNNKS
UniProt O75582, whole entry, looked up: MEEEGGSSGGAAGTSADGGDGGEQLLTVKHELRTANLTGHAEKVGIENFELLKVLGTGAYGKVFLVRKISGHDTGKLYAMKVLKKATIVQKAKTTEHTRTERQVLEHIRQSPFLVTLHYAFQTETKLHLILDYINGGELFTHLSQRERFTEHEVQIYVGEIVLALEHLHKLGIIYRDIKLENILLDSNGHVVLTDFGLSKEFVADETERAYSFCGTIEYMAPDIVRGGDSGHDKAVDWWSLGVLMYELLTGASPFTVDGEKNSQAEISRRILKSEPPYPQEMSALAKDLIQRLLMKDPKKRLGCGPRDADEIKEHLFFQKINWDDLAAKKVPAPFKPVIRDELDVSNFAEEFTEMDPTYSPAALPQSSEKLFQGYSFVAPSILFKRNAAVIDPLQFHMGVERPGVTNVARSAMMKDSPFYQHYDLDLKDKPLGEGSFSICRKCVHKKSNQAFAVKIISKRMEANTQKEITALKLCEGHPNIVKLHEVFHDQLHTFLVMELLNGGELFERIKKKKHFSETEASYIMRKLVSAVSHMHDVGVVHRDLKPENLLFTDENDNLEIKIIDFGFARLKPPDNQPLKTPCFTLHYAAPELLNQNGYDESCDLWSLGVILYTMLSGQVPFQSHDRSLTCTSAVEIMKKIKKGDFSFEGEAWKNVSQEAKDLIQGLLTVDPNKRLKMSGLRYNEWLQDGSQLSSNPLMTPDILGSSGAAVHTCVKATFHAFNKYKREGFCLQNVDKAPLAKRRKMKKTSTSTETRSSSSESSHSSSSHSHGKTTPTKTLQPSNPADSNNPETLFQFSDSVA
UniProt P29034: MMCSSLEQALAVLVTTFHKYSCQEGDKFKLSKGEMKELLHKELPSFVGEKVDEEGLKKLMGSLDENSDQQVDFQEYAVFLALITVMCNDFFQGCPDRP
UniProt Q9Y230, whole entry, looked up: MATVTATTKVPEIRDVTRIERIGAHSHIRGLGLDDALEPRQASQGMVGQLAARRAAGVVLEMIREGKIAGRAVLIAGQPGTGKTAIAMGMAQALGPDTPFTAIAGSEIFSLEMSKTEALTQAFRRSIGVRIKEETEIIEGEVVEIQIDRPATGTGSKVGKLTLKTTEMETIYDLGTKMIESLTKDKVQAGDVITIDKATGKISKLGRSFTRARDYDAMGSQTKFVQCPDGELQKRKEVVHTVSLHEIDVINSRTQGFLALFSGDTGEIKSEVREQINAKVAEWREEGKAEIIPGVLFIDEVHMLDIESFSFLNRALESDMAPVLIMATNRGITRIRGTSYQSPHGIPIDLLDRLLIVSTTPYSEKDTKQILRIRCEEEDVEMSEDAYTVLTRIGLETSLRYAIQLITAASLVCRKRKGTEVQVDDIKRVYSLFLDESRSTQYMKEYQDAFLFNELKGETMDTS
UniProt Q9Y3V2: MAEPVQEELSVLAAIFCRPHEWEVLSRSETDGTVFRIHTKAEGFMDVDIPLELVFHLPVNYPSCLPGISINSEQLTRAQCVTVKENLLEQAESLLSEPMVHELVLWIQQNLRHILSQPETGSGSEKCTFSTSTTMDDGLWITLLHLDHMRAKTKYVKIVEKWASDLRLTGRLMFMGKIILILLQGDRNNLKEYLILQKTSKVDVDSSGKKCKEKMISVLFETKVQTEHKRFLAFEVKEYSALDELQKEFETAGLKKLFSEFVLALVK
UniProt Q96EU6: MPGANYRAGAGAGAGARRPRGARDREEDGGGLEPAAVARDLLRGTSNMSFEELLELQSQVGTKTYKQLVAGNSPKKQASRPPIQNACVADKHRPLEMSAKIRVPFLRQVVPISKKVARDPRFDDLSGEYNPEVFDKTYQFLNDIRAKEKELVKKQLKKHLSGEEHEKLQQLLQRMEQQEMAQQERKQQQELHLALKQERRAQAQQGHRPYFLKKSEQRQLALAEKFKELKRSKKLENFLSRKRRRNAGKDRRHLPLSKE
UniProt Q9NQC3: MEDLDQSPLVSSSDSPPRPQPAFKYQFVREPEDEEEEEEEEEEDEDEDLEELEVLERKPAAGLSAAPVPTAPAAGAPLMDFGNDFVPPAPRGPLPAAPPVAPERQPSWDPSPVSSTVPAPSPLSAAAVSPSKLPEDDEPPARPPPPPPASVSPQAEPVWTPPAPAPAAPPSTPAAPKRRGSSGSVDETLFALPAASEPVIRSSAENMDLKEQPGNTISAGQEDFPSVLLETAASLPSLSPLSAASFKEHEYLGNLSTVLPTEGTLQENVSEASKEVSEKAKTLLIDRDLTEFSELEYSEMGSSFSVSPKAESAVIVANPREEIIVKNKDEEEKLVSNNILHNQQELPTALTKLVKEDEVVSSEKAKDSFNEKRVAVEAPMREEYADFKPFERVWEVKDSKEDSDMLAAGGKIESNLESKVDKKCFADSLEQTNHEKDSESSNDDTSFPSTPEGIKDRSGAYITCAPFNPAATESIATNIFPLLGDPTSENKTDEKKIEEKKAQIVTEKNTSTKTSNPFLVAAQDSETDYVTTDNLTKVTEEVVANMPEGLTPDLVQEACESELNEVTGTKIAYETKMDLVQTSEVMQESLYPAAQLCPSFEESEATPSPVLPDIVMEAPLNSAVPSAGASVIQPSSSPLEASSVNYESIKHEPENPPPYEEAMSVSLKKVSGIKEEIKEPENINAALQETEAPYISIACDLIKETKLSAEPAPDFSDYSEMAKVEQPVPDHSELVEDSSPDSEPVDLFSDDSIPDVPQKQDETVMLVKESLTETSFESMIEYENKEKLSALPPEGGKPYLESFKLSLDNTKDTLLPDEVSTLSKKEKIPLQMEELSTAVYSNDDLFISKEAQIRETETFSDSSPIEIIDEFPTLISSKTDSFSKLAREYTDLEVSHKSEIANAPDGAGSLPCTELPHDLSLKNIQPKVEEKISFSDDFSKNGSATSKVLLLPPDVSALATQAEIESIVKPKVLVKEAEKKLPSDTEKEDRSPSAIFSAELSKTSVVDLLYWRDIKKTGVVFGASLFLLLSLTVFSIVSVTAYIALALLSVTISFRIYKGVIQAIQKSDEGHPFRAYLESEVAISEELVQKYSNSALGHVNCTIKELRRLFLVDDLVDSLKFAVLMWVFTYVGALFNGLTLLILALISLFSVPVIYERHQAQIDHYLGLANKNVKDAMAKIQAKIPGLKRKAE
UniProt P26447: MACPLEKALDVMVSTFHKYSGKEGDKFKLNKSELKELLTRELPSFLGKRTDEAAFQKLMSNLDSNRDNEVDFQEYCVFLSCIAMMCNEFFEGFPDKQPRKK

Common to all, as to experiment: log2 fold change, soluble protein after heating vs DMSO (PISA); higher = thermal stabilisation; K562 lysate, 10 uM; active = over 0.2 and 3.5 SD of the protein, either way, in both replicates (recomputed)
Compound in experiment [1]: CC1=C2C(=CC=C1)N=C(N(C2=O)C3=CC=CC=C3C)CN4C=NC5=C(N=CN=C54)N
In outline:
(§1)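 Dounce homogenisation of K562 pellets in PBS pH 7.4 with 1 mM MgCl2 produced a crude extract, used at 1 mg/mL protein. Exposure to 10 μM compound lasted 30 min, and aliquots were then heated for 3 min across 48°C-58°C, pooled and brought to 0.5% NP-40 at 4°C. The supernatant after 21,000xg for 90 min was quantified by TMTpro 16plex LC-MS/MS with channel sums equalised. Duplicate values are given as log-two fold change in thermal stability relative to solvent controls.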

Compound in experiment [2]: Cc1sc2c(c1C)C(c1ccc(Cl)cc1)=N[C@@H](CC(=O)OC(C)(C)C)c1nnc(C)n1-2
In outline: as §1

Compound in experiment [3]: C1=CC=C(C=C1)[C@H](COC2=CC3=C(C=C2)NC(=O)N3)NC(=O)C4=CC=CN(C4=O)CC5=CC(=C(C=C5)F)F
In outline: as §1

Compound in experiment [4]: CC1=C(SC2=C1C(=N[C@H](C3=NN=C(N32)C)CC(=O)N)C4=CC=C(C=C4)Cl)C
In outline: as §1

Compound in experiment [5]: c1ccc([C@@H]2C[C@H]2NC2CCNCC2)cc1
In outline:
as §1

For RTL8A (UniProt Q9BWD3), the log2 fold change in experiment [1] is inactive: 0.215.
RTEL1 isoform 2 (UniProt Q9NZ71): the log2 fold change in experiment [2] is inactive: 0.097.
Regarding S100A14 (UniProt Q9HCY8), the log2 fold change in experiment [3] is inactive: -0.209; in experiment [4], inactive: -0.086; in experiment [2], inactive: 0.
RPS19 (UniProt M0R2L9): the log2 fold change in experiment [1] was inactive: 0.377; in experiment [2] it was inactive: 0.27.
As for RPP30 (UniProt Q5VU11), in experiment [1], the log2 fold change is inactive: 0.022.
Take RSU1 (UniProt Q15404): the log2 fold change is inactive: 0.056 in experiment [3]; inactive: 0.004 in experiment [4]; inactive: -0.004 in experiment [1]; inactive: -0.017 in experiment [2]; inactive: 0.157 in experiment [5].
For RXRA (UniProt P19793), the results for the log2 fold change in experiment [2] and in experiment [5] were inactive: 0.167 and inactive: -0.149, respectively.
For the target RPS3 (UniProt E9PJN9), the log2 fold change in experiment [1] was inactive: 0.214.
Turning to RPS6KB2 (UniProt Q9UBS0), the log2 fold change in experiment [2] was inactive: -0.008; in experiment [5], inactive: 0.226.
For RPL36A (UniProt P83881), the log2 fold change in experiment [3] was inactive: -0.04; in experiment [4], inactive: -0.001; in experiment [1], inactive: -0.018; in experiment [2] it was inactive: -0.011; in experiment [5] it was inactive: 0.01.
With RPSA (UniProt F8WD59), the log2 fold change in experiment [2] is inactive: 0.303; in experiment [5], inactive: 0.227.
As to RRP8 (UniProt O43159), the log2 fold change is inactive: 0.062 in experiment [3]; inactive: 0.053 in experiment [4]; inactive: 0.119 in experiment [1]; inactive: -0.017 in experiment [2]; inactive: 0.124 in experiment [5].
Regarding S100A10 (UniProt P60903), the results for the log2 fold change in experiment [3], in experiment [4] and in experiment [2] were inactive: -0.048, inactive: 0.001 and inactive: -0.233, respectively.
As to RUFY2 isoform 1 (UniProt Q8WXA3), the log2 fold change in experiment [3] was inactive: -0.28; in experiment [4], inactive: -0.106; in experiment [1], inactive: -0.087; in experiment [5] it was inactive: -0.111.
On the same counts, the results for RPP14 (UniProt O95059) are inactive: 0.044, inactive: 0.015, inactive: -0.095 and inactive: -0.093.
Turning to S100A16 (UniProt Q96FQ6), the log2 fold change is inactive: -0.484 in experiment [3], inactive: 0.131 in experiment [4] and inactive: -0.038 in experiment [5].
For the target RSRP1 (UniProt Q9BUV0), the log2 fold change in experiment [2] was inactive: -0.238.
For the target RRAS2 (UniProt P62070), the log2 fold change in experiment [3] is inactive: -0.021; in experiment [4] it was inactive: 0.013; in experiment [1] it was inactive: -0.037; in experiment [2] it was inactive: -0.033; in experiment [5], inactive: 0.016.
Turning to S100A12 (UniProt P80511), the log2 fold change in experiment [1] is inactive: 0.198.
As to RTN4, A0A0U1RQR6, the log2 fold change in experiment [5] was inactive: -0.051.
As to S100A1 (UniProt P23297), the results for the log2 fold change in experiment [1], in experiment [2] and in experiment [5] were inactive: -0.02, inactive: -0.065 and inactive: -0.056, respectively.
Turning to RUFY3 isoform 2 (UniProt Q7L099), the log2 fold change in experiment [3] was inactive: -0.008; in experiment [4], inactive: 0.026; in experiment [2] it was inactive: 0.007; in experiment [5] it was inactive: 0.221.
Take S100A6 (UniProt P06703): the log2 fold change in experiment [1] is inactive: -0.084; in experiment [2] it was inactive: -0.1; in experiment [5], inactive: 0.104.
Turning to RXYLT1 (UniProt Q9Y2B1), in experiment [2], the log2 fold change is inactive: -0.23.
As for RTL8C (UniProt A6ZKI3), the figures for the log2 fold change in experiment [1] and in experiment [2] were inactive: 0.068 and inactive: -0.108, respectively.
In the case of RSC1A1 (UniProt Q92681), the results for the log2 fold change in experiment [3], in experiment [4] and in experiment [2] were inactive: 0.059, inactive: -0.008 and inactive: -0.052, respectively.
Consider RYR1 (UniProt P21817), for which the log2 fold change in experiment [3] is inactive: -0.011; in experiment [4], inactive: -0.028; in experiment [2], inactive: -0.093; in experiment [5], inactive: -0.055.
Turning to RPS6KA5 (UniProt O75582), the log2 fold change in experiment [1] was inactive: -0.084; in experiment [2] it was inactive: -0.024; in experiment [5] it was inactive: -0.017.
On the same counts, the results for RPUSD1 (UniProt Q9UJJ7) are inactive: 0.024, inactive: -0.061 and inactive: -0.152.
Regarding RPUSD3 (UniProt Q6P087), the log2 fold change in experiment [1] was inactive: 0.058; in experiment [2], inactive: 0.012; in experiment [5], inactive: 0.035.
With RSL24D1 (UniProt Q9UHA3), the log2 fold change in experiment [2] was inactive: -0.062; in experiment [5], inactive: 0.056.
With S100A2 (UniProt P29034), the log2 fold change was inactive: 0 in experiment [3], inactive: 0.037 in experiment [4], inactive: 0.264 in experiment [1] and inactive: -0.45 in experiment [5].
Take RPS9 (UniProt P46781): the log2 fold change in experiment [3] was inactive: 0.003; in experiment [4] it was inactive: 0.038; in experiment [1], inactive: -0.007; in experiment [2] it was inactive: 0.1; in experiment [5], inactive: 0.124.
In the case of RUVBL2 (UniProt Q9Y230), the log2 fold change in experiment [3] was inactive: 0.012; in experiment [4], inactive: 0.002; in experiment [1], inactive: 0.01; in experiment [2], inactive: 0; in experiment [5] it was inactive: 0.001.
Consider RUNDC1 (UniProt Q96C34), for which the log2 fold change in experiment [3] is inactive: 0.255; in experiment [4], inactive: 0.177; in experiment [2], inactive: -0.055; in experiment [5] it was inactive: -0.236.
Turning to RWDD3 (UniProt Q9Y3V2), the log2 fold change was inactive: 0.084 in experiment [2] and inactive: 0.016 in experiment [5].
As to RRP36 (UniProt Q96EU6), the log2 fold change in experiment [1] was inactive: -0.151; in experiment [2] it was inactive: 0.11.
Turning to RTN4 (UniProt Q9NQC3), the log2 fold change in experiment [3] is inactive: -0.026; in experiment [4] it was inactive: 0.003; in experiment [1] it was inactive: -0.005; in experiment [2], inactive: -0.03; in experiment [5] it was inactive: -0.057.
On the same counts, the results for RPL7A (UniProt P62424) are inactive: 0.013, inactive: 0.017, inactive: 0.015, inactive: 0.013 and inactive: 0.013.
On to S100A4 (UniProt P26447), for which the figures for the log2 fold change in experiment [1], in experiment [2] and in experiment [5] were inactive: -0.063, inactive: -0.103 and inactive: 0.11, respectively.

The record behind these values is the supplement of paper PMC10849652.
